Laboratory results: PubChem BioAssay AID504786 (Drosophila RNAi Screening Center, 2011)
In all, the deposit lists about 21,000 reagents; shown is a random part of those with a known target gene and a result. 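Primary screen; positive scores mean lost reporter signal, so the sign may be inverted from the usual convention.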

- Screen: 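Positive regulators of HIF-driven reporter output in Drosophila cells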 (primary screen)
- Cells: Drosophila S2 cells with a stable HIF luciferase reporter
- Knock-down reagent: long dsRNA against Drosophila genes, about 0.2 µg dsRNA per well of a 384-well plate
- Duration: three days of knock-down, then 20 h of DFO before reading
- Treatment: desferrioxamine (DFO) at 100 µM, an iron chelator that mimics hypoxia, for 20 h
- Measured: 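Firefly luciferase driven by the mouse ldh-a hypoxia-response element, measured after 20 h of 100 µM DFO; z-scores per plate, higher means more signal lost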
- Scale: z-score: higher = stronger loss of HIF reporter signal

no.	Target gene	amplicon	z-score, replicate 1	z-score, replicate 2	z-score, replicate 3	z-score, replicate 4
1	Ibf1 (GeneID 41103)	DRSC16419	-0.2	0.2		
2	Doc3 (GeneID 39036)	DRSC10480	-0.4	-0.1		
3	endos (GeneID 39554)	DRSC10658	-0.1	-0.3		
4	CG13585 (GeneID 37918)	DRSC04221	-0.3	-0.2		
5	Ufl1 (GeneID 40843)	DRSC12527	-0.3	-0.2		
6	CG31068 (GeneID 318578)	DRSC13820	-0.1	-0.3		
7	Scp1 (GeneID 3355102)	DRSC20799	0.3	-0.1		
8	Scp1 (GeneID 3355102)	DRSC20803	0.9	-0.3		
9	Scp1 (GeneID 3355102)	DRSC20806	-0.1	-0.3		
10	CG3511 (GeneID 37926)	DRSC04382	-0.4	-0.1		
11	Cpr65Ay (GeneID 5740348)	DRSC08796	-0.1	0.3		
12	MED7 (GeneID 41288)	DRSC16059	0.6	1.2		
13	lobo (GeneID 4379864)	DRSC14662	0.1	0.1		
14	lobo (GeneID 4379864)	DRSC14663	-0.6	-0.3		
15	Gpb5 (GeneID 3355097)	DRSC21241	-0.5	-0.4		
16	S6k (GeneID 38654)	DRSC11276	0.7	0.4		
17	CG5592 (GeneID 38662)	DRSC10524	-0.3	-0.4		
18	CG34320 (retired record) (GeneID 5740595)	DRSC17682	0.1	-0.5		
19	ZnT63C (GeneID 38407)	DRSC08032	0	-0.2		
20	ZnT63C (GeneID 38407)	DRSC08033	-0.3	-0.4		
21	ZnT63C (GeneID 38407)	DRSC08519	-0.3	-0.3		

Targets listed so far whose target name begins with S or s:
Target gene	amplicon	z-score, replicate 1	z-score, replicate 2	z-score, replicate 3	z-score, replicate 4
Scp1 (GeneID 3355102)	DRSC20799	0.3	-0.1		
Scp1 (GeneID 3355102)	DRSC20803	0.9	-0.3		
Scp1 (GeneID 3355102)	DRSC20806	-0.1	-0.3		
S6k (GeneID 38654)	DRSC11276	0.7	0.4		

The list goes on.
no.	Target gene	amplicon	z-score, replicate 1	z-score, replicate 2	z-score, replicate 3	z-score, replicate 4
22	Mgat4a (GeneID 39608)	DRSC09326	-0.4	-0.1		
23	Mgat4a (GeneID 39608)	DRSC11070	-0.1	-0.4		
24	insv (GeneID 33441)	DRSC00579	-0.1	-0.1		
25	Cpr49Ac (GeneID 36348)	DRSC07199	-0.3	-0.5		
26	CG17807 (GeneID 37585)	DRSC04296	-0.3	-0.4		
27	CG15412 (GeneID 33553)	DRSC00427	-0.3	-0.3		
28	heix (GeneID 34961)	DRSC03542	-0.1	0.4		
29	mre11 (GeneID 34565)	DRSC03570	-0.4	-0.3	-0.7	-0.2
30	CG8907 (GeneID 42050)	DRSC16453	-0.2	-0.4		
31	CG5618 (GeneID 40241)	DRSC11780	-0.2	-0.1		
32	CG11257 (GeneID 37227)	DRSC06068	-0.4	-0.4		
33	ND-19 (GeneID 37946)	DRSC04404	0	-0.1		
34	Slob (retired record) (GeneID 34039)	DRSC03436	-0.3	-0.2		
